{"sequences": {"note": "Protein sequences, listed by entry. Tags and fused reporters are not part of them. Lines headed by an entry give the natural chain unless they say otherwise; changes in a name come on top.", "UniProt P35222": "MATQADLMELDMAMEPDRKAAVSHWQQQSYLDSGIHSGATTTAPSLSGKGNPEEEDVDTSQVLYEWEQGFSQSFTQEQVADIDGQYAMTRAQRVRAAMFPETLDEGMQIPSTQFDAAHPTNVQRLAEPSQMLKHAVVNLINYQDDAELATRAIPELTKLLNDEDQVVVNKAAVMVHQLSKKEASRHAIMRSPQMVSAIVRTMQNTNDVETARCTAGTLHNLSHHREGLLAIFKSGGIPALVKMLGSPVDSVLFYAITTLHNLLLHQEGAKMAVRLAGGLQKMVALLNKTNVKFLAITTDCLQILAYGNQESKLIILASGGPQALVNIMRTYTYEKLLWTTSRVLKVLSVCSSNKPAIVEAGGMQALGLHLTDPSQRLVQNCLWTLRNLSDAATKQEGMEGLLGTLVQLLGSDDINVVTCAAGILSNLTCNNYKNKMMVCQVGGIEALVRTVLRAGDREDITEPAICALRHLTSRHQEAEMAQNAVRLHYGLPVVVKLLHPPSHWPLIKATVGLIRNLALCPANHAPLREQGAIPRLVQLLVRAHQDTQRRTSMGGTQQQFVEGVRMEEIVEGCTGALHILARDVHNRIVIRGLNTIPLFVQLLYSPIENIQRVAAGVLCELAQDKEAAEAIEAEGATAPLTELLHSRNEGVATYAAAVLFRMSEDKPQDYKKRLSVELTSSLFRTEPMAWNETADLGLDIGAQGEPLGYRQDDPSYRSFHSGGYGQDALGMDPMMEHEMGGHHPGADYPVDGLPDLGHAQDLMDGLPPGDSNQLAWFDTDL", "UniProt Q96EB6": "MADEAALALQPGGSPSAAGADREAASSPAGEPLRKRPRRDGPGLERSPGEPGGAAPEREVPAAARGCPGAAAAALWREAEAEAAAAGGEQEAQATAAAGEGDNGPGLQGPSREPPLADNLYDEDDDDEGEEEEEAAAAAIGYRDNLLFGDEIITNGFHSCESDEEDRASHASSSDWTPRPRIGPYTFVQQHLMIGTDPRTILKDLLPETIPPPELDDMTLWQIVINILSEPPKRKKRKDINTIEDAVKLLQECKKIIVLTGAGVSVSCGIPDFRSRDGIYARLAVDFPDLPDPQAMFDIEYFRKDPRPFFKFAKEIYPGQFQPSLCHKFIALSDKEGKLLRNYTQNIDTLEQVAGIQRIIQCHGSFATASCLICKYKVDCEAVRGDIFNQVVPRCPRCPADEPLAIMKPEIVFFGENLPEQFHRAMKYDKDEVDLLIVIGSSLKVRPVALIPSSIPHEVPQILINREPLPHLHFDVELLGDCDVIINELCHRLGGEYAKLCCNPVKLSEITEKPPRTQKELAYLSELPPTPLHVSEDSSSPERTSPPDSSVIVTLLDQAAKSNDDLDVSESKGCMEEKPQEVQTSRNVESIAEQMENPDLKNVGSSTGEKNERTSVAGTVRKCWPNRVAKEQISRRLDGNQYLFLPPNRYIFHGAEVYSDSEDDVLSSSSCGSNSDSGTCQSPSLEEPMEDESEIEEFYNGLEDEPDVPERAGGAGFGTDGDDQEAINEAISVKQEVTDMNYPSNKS"}, "source": "patent US20110009474A1", "about": "“SIRTUIN BASED METHODS AND COMPOSITIONS FOR TREATING BETA-CATENIN-RELATED CONDITIONS” (President and Fellows of Harvard College, priority 2007, published 2011)", "key": {"[1]": {"target": "endogenous β-catenin (human) (UniProt P35222)", "assay": "co-immunoprecipitation from LN-CAP cell extract (IP anti-SIRT1, blot anti-β-catenin)"}, "[2]": {"target": "endogenous β-catenin (human) (UniProt P35222)", "assay": "co-immunoprecipitation from LN-CAP extract with anti-SIRT1 antibody, FIG. 4C"}}, "note": "Results are given in words; binding and its absence hold for the method and conditions named. In cells and extracts the contact can be indirect. Some binding calls cover weakened binding; strength is not graded here.", "data": [{"substance": "endogenous SIRT1 (LN-CAP cells) (from UniProt Q96EB6 2-747)", "values": [{"measurement": "binding", "setting": "[1]", "value": "binds"}, {"measurement": "binding", "setting": "[2]", "value": "binds"}]}]}
